Experimental findings from PubChem BioAssay AID493014 (National Center for Advancing Translational Sciences (NCATS), 2011) are described below.

What is called AC50 is the concentration giving half of the maximal activity seen.

The other results are listed elsewhere or left out. These are further read-outs of the screen, such as a control signal, another cell line or another target. No call is given for them. Most of these compounds were active or inconclusive in the main read-out, so they are no random draw. The note in brackets gives the kind of curve behind each potency; many fits are weak.

This test in a line: qHTS Assay to Find Inhibitors of Chronic Active B-Cell Receptor Signaling. The conditions noted are these: ABC-DLBCL IkBa-CBG/CBR reporter, luminescence ratio (green luciferase fused to IkBa over red control in TMD8 lymphoma cells), 4 h. The gist of the method:
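Cell line TMD8 (human ABC DLBCL), stably expressing tet-inducible CBG68-IkBa fusion and CBR; IMDM/0.5% FBS; cpd up to 46 uM; dox induction, 4 h, 37C/5% CO2; dual luminescence; green/red ratio; MG132 control.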

Where [1] appears, read: measured here: CBR red luminescence, cell number.

Turning to `CC(OC(=O)c1ccccc1NS(=O)(=O)c1cccc(C(F)(F)F)c1)C(=O)N(C)Cc1ccccc1` (stereo not drawn), for the setting “measured here: IkBa-CBG green luminescence”, the AC50 was 29.1 µM [rising, partial curve, poor fit].
Take `Cc1ccc(-c2nnc3sc(CCc4ccccc4)nn23)cc1`: under setting [1], the AC50 was 1.16 µM [rising, full curve, poor fit].
In the case of `COc1ccc(-c2cc3cc(OC)c(OC)cc3c(C)n2)cc1C`, the concentration at half-maximal activity (AC50) under setting [1] was 5.62 µM [rising, full curve, poor fit].
The same measure, in the same setting: for `CC(C)(C)NC(=O)CCc1nnc(Cc2c[nH]c3ccccc23)o1` the value was 10 µM [falling, partial curve, poor fit].
On the same count and under the same terms, for `COc1cccc(C(=O)C[n+]2cccc3cc(OC)ccc32)c1` the value was 18.4 µM [falling, partial curve, poor fit]; for `COC(=O)C1=C(C)N(Cc2ccccc2)C(=NCc2cc(OC)c(OC)c(OC)c2)N[C@H]1c1cccc(F)c1`, 12.6 µM [falling, single point].
In the case of `O=C(Nc1cccc(Br)c1)c1ccc(Cl)c(S(=O)(=O)N2CCOCC2)c1`, the concentration at half-maximal activity (AC50) under setting [1] is 20.6 µM [falling, partial curve, poor fit].
`CCCCNC(=O)CN1CCN(Cc2ccc3cc(OC)ccc3c2)CC1`: the AC50 under setting [1] is 0.126 µM [rising, full curve, poor fit].
Same read-out and setting: with `O=C(Nc1nnc(-c2ccc3c(c2)CCCC3)o1)c1c(F)cccc1F` the figure was 12.6 µM [falling, single point]; with `Cc1cc2cc3c(cc2nc1SCC(=O)N1CCN(C(=O)c2ccco2)CC1)OCO3`, 22.4 µM [falling, single point]; with `C=CCSc1nn2c(=O)c3ccccc3nc2s1`, 12.6 µM [falling, single point].
As to `O=C(c1ccc(Br)o1)N1CCN(CCOc2ccccc2)CC1`, the AC50 under setting [1] is 11.2 µM [rising, partial curve, poor fit].
Still for that read-out and setting: with `Cc1ccc(-c2nc3cccnc3o2)cc1NC(=O)COc1ccc(C(C)(C)C)cc1` the figure was 29.1 µM [falling, single point].
With `CCOc1ccc(N(C)Cc2cc(=O)oc3ccc(OC)cc23)cc1`, the AC50 under setting [1] is 6.31 µM [rising, single point].
The same measure, in the same setting: with `COC(=O)C(O)(CC(=O)Nc1ccc(C)c(F)c1)C(F)(F)F` (stereo not drawn) the figure was 32.6 µM [rising, single point]; with `N#Cc1cc(NCC2CCCO2)c([N+](=O)[O-])cc1C#N` (stereo not drawn), 25.9 µM [rising, partial curve, poor fit]; with `COc1ccc(NC(=O)/C=C/c2ccccc2)cn1`, 14.6 µM [falling, partial curve, poor fit].
As to `CCCCCCSc1nsc(NC(C)=O)n1`, the AC50 under setting [1] was 1.58 µM [rising, full curve, poor fit].
